The list shows a part of the results.

Some test systems named below: PDXDC1 (human); PDXK (human); PDYN (human); PDZD11 (human); PDZK1 (human); PDZK1IP1 (human).
Experiment in all cases: protein microarray (ProtoArray v5.0), streptavidin-Alexa Fluor 647
Holding throughout (settings): 3'-biotin; 20 mM Tris (pH 7.5), 5 mM MgCl2, 100 mM KCl, 0.1% Tween-20, A/T-rich and random oligonucleotide blockers; temperature not stated; high values mean tight binding

The test system of assay [1] is PDZ and LIM domain protein 3 (human).
Assay [2] concerns PDZ and LIM domain protein 4 (human).
Assay [3] has as its system PDZ domain-containing protein GIPC1 (human).
Assay [4] has as its system PDZK1-interacting protein 1 (human).

For “GGGAGGCTGAGGCAGG [G4-1 biotinylated (PQS2)]”, the binding signal in the assay on PDXDC1 (human) was -0.329 z-score; with PDXK (human) it was -0.296 z-score; in the assay with PDYN (human) it was -0.33 z-score; in assay [1], -0.346 z-score; in assay [2], -0.322 z-score; in assay [3], -0.315 z-score. Moreover, the binding signal in the assay on PDZD11 (human) is -0.33 z-score; in the assay with PDZK1 (human) it was -0.318 z-score; in assay [4], -0.326 z-score; in the assay with PDZK1IP1 (human) it was -0.317 z-score.

Values taken from PMC5996148.
